Data: patent publication US20240156908A1, “USE OF sEphB4-HSA FUSION PROTEIN AS A FIRST-LINE THERAPY IN CANCER TREATMENT” (priority 2021, published 2024)
Results are given in words; binding and its absence hold for the method and conditions named. In cells and extracts the contact can be indirect. Some results given as binding are weak or reduced against the parent protein; the word gives no strength.

By UniProt entry, the sequences of proteins in these tests, tags left out. Where a name states a change or a piece, a line headed by the entry shows the natural chain unless it says otherwise.
UniProt Q9Y297: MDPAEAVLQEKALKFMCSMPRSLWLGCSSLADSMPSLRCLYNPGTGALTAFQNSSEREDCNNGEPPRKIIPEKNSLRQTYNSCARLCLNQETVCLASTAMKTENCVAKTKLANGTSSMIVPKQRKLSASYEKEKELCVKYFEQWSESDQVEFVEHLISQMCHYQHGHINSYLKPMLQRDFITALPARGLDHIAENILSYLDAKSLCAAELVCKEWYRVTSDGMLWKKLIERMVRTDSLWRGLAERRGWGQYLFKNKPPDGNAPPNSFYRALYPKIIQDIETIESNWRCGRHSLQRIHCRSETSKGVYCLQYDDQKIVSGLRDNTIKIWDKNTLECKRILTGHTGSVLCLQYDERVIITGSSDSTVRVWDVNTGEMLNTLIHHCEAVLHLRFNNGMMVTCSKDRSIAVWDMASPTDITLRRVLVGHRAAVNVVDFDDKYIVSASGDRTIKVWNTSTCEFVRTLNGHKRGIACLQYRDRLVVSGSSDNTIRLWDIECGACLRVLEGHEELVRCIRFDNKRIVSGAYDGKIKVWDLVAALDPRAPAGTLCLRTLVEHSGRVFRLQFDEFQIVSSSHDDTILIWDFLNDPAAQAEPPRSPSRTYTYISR
UniProt P54760: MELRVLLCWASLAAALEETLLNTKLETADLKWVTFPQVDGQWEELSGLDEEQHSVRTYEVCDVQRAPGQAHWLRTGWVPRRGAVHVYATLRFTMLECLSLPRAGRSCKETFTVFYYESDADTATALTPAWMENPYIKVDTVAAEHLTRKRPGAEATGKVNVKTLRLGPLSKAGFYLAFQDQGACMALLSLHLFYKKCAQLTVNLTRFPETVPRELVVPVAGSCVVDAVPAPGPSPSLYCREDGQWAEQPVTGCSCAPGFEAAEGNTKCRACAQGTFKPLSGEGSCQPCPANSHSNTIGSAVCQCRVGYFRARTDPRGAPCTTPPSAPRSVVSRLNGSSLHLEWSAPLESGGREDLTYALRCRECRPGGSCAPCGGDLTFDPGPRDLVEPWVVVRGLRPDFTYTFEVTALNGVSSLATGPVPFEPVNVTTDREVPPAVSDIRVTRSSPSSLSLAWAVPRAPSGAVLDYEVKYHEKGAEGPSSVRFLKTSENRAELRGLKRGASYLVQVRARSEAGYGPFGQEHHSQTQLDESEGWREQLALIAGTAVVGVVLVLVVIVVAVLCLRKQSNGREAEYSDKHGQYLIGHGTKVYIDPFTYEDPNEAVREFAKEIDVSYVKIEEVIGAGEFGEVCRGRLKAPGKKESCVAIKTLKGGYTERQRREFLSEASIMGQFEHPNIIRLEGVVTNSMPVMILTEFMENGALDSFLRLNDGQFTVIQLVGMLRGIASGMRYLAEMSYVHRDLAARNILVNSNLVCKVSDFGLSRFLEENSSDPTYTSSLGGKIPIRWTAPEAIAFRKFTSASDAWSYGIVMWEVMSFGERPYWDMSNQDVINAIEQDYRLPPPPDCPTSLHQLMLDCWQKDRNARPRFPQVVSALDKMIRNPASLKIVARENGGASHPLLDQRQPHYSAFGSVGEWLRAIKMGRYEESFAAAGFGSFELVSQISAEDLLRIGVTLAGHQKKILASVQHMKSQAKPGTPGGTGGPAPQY

Tests used:
EGFR [1] = molecular target: EGFR (UniProt P00533); test: western blot analysis (co-IP), FIG. 12 legend
EGFR [2] = molecular target: EGFR (UniProt P00533); test: reciprocal co-immunoprecipitation and western blot of cell lysates
[3] = molecular target: 8-transducing repeat containing protein 1 (8-TrCP1), F-box family E3 ligase (UniProt Q9Y297); test: co-immunoprecipitation between EphB4 and 8-TrCP1 (FIG. 19F, middle panels)

Measured: binding

EphB4 (receptor tyrosine kinase EphB4, full length) (from UniProt P54760 16-987)
binds: all assays above
